# The supplement of paper PMC12823440, “Inhibitors supercharge kinase turnover through native proteolytic circuits” (Nature, 2025)
# Sequences of proteins named here, by UniProt entry; tags and fusion partners are left off. A change or cut given only in a name is not applied to a line headed by its entry.
# UniProt Q9BRS2: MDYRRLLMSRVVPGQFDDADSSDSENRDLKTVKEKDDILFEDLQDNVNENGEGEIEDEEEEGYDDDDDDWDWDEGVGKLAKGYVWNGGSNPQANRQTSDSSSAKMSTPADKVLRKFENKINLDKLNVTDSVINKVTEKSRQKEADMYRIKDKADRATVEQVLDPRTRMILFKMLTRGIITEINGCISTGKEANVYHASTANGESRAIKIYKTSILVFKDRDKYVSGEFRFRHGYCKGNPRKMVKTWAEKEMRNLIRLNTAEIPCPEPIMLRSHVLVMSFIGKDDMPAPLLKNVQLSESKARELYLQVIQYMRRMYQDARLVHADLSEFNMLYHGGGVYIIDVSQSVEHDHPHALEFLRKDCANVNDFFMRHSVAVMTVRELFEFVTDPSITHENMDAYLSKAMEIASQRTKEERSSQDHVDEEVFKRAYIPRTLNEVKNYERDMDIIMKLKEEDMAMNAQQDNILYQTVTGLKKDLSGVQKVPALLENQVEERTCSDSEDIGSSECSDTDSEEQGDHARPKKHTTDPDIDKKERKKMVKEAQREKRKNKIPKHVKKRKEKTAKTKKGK
# UniProt Q13546: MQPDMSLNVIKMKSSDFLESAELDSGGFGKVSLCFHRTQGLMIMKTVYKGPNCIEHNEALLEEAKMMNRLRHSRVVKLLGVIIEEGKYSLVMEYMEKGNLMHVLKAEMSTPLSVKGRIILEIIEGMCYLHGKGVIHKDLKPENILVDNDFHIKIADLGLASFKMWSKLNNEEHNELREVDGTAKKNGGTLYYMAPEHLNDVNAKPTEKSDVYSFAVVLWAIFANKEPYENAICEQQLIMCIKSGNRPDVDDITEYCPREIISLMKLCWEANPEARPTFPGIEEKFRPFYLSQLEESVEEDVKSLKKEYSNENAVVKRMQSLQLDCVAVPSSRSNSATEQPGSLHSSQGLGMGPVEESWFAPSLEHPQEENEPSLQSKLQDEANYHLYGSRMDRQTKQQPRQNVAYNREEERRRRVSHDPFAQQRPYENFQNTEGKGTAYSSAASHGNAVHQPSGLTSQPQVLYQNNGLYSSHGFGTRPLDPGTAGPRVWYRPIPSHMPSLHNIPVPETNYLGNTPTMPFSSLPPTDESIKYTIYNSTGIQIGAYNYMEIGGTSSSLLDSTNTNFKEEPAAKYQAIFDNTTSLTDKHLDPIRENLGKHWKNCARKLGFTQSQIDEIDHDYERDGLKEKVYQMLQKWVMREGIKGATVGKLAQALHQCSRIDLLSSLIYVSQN
# UniProt Q01974, whole entry: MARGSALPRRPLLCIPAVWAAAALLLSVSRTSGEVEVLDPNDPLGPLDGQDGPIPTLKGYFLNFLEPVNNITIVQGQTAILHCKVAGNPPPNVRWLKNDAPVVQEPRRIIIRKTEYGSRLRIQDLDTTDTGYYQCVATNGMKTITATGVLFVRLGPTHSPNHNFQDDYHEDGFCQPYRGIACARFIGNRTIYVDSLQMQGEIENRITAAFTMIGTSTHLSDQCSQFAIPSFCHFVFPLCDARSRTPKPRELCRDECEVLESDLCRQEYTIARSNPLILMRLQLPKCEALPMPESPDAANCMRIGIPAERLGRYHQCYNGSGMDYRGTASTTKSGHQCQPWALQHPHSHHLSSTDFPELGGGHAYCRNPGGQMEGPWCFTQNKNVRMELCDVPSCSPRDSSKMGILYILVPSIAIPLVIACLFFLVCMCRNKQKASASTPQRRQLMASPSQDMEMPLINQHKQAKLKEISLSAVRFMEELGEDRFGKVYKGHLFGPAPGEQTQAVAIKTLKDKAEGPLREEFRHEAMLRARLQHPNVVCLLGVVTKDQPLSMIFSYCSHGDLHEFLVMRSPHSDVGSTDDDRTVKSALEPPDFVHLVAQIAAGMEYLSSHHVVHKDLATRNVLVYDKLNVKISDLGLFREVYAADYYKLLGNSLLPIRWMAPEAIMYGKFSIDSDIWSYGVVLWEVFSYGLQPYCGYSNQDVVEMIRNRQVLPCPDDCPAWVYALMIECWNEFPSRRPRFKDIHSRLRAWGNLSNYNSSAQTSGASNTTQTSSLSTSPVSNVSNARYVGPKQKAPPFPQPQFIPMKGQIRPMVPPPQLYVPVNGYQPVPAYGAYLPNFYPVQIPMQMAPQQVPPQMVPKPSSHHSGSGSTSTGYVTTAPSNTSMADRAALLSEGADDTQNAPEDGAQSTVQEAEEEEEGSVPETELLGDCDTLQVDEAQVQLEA
# UniProt Q15418, whole entry: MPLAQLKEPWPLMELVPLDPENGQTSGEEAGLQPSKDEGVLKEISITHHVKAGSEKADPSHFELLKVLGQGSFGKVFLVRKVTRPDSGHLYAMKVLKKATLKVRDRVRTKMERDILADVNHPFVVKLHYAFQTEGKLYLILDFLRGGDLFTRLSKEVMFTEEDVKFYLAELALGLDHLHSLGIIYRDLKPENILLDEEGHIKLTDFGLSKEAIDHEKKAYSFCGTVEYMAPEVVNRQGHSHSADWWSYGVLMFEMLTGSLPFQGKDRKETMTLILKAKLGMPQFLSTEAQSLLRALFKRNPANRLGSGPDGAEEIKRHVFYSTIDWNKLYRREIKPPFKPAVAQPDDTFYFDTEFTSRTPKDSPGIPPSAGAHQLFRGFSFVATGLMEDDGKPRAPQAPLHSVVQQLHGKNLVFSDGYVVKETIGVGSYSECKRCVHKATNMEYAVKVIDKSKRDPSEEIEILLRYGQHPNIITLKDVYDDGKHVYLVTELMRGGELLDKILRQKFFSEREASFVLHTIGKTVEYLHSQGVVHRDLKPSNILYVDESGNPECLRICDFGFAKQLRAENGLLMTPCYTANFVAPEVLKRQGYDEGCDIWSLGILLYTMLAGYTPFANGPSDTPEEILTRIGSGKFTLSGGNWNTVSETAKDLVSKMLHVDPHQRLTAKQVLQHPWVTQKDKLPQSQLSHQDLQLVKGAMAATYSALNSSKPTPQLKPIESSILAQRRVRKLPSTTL
# UniProt Q9Y6E0: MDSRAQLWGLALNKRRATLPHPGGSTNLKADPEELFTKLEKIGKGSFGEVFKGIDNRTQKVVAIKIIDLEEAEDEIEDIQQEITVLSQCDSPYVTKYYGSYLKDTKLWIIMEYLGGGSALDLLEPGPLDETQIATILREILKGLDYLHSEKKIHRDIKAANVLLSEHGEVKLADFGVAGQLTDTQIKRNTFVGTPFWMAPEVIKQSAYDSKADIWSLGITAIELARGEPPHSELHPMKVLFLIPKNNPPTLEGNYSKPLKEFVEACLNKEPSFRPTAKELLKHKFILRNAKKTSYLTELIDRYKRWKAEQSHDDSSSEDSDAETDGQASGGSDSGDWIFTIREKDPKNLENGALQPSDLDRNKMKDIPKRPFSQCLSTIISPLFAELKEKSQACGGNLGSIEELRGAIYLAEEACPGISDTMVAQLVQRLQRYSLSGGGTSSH
# UniProt Q15208: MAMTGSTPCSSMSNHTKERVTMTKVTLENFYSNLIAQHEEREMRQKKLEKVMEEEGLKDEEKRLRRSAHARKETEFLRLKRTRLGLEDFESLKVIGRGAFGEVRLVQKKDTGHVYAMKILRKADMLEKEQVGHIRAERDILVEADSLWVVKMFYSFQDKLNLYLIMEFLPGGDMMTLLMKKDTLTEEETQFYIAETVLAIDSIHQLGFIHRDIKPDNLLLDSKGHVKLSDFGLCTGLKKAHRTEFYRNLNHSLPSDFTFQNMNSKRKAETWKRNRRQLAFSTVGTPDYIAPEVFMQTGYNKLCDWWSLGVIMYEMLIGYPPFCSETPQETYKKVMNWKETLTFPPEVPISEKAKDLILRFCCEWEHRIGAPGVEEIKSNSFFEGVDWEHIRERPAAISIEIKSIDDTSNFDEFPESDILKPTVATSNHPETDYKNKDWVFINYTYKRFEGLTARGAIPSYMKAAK
# UniProt P42680: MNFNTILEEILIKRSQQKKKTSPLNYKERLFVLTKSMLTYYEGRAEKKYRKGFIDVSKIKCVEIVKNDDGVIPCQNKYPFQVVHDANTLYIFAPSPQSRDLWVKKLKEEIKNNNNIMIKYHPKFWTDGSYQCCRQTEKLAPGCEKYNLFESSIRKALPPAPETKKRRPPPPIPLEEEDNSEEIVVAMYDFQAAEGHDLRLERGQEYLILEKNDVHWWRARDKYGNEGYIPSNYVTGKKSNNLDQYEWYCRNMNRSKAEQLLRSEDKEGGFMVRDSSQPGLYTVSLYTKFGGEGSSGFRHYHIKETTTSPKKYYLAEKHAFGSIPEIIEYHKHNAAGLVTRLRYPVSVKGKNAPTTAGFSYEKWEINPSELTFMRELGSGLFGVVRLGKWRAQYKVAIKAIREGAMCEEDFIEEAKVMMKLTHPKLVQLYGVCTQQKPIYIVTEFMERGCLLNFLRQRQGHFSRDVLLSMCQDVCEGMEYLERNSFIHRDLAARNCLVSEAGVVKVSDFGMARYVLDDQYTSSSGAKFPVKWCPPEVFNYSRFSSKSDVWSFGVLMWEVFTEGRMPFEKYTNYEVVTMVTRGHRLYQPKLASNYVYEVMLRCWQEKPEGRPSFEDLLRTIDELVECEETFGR
# UniProt Q6PHR2: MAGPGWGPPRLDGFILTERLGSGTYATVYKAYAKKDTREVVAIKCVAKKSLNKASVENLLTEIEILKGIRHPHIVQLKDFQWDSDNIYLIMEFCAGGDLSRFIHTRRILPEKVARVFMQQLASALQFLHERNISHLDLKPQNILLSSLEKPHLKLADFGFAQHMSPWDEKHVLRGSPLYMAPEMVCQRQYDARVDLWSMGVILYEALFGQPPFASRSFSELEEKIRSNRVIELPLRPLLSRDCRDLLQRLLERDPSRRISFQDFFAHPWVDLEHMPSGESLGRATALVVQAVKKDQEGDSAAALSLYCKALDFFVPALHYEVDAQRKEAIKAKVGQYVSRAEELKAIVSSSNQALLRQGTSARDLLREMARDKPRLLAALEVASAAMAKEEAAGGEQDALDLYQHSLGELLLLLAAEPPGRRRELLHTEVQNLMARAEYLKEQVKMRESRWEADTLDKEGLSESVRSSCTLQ
# UniProt P07947, whole entry, looked up: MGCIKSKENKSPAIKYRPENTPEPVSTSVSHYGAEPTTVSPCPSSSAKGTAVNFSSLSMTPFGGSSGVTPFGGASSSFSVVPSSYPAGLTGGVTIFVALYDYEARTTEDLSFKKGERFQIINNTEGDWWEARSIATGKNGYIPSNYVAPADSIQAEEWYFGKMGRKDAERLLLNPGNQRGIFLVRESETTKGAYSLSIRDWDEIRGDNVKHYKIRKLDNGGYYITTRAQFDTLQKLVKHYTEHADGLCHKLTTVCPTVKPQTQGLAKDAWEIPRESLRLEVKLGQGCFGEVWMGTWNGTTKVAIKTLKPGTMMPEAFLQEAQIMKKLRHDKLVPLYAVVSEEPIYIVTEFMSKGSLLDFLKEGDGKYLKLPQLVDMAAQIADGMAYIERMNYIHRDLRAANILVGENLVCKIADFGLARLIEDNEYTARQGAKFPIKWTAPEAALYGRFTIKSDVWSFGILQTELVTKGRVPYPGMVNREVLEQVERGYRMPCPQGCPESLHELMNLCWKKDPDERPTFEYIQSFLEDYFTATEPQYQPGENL
# UniProt P43403: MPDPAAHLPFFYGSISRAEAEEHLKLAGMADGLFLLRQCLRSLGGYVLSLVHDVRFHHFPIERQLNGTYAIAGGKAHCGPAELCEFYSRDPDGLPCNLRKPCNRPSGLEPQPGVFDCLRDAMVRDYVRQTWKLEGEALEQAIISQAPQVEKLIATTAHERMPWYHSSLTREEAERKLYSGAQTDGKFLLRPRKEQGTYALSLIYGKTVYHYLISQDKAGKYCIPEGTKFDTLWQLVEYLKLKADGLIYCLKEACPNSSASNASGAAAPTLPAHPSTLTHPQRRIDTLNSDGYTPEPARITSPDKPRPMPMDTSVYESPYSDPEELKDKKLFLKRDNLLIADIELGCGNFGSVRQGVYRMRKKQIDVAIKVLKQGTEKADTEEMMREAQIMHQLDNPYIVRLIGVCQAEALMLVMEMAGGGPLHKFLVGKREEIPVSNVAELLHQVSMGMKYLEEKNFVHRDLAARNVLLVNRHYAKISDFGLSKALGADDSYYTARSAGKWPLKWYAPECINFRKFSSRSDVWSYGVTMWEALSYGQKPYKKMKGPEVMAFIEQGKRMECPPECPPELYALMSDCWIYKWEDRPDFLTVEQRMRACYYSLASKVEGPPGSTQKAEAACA
# UniProt P31749: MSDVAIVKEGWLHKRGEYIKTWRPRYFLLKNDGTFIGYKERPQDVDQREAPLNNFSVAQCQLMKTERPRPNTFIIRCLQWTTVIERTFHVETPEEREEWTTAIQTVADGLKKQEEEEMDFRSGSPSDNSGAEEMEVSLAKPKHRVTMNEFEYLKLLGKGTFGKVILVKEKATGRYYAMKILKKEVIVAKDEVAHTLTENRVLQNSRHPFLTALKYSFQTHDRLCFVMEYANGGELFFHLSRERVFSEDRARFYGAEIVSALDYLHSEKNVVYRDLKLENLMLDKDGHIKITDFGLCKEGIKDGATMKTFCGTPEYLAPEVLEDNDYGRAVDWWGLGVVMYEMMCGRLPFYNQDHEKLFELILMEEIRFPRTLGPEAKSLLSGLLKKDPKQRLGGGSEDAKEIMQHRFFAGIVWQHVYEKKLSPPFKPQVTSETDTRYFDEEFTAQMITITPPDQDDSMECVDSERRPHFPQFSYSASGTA
# This is one part of the list. The calls rarely recur for the same compound in another form.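 Kinases, fused to nanoluciferase, were expressed in K562 cells; luminescence was measured every 4 h from 2 to 18 h as percent of control (DMSO = 100%, positive control = 0%). A time point is decreased if signal falls significantly (2 sigma). Hits were called by the authors by a rule that is not shown; the count of time points alone does not decide it.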
# Tests used:
# Conditions in all cases: K562; 2-18 h
# [1] = target: RET (UniProt P07949); experiment: kinase-Nluc reporter destabilization hit call (1 = scored as downregulated) (binary); higher = compound decreases kinase abundance
# [2] = target: RET_M918T (clone: RET_mut) (UniProt P07949); experiment: as above
# [3] = target: RIOK1 (UniProt Q9BRS2); experiment: as above
# [4] = target: RIPK1 (UniProt Q13546); experiment: as above
# [5] = target: RIPK2 (UniProt O43353); experiment: as above
# [6] = target: ROR2 (UniProt Q01974); experiment: as above
# [7] = target: RPS6KA1 (UniProt Q15418); experiment: as above
# [8] = target: SPHK1 (UniProt Q9NYA1); experiment: as above
# [9] = target: SRC (UniProt P12931); experiment: as above
# [10] = target: STK24 (UniProt Q9Y6E0); experiment: as above
# [11] = target: STK38 (UniProt Q15208); experiment: as above
# [12] = target: SYK (UniProt P43405); experiment: as above
# [13] = target: TEC (UniProt P42680); experiment: as above
# [14] = target: TYK2 (UniProt P29597); experiment: as above
# [15] = target: ULK3 (UniProt Q6PHR2); experiment: as above
# [16] = target: YES1 (UniProt P07947); experiment: as above
# [17] = target: ZAK (UniProt Q9NYL2); experiment: as above
# [18] = target: ZAP70 (UniProt P43403); experiment: as above
# [19] = target: ABL1 (UniProt P00519); experiment: number of time points (of 5) at which kinase-Nluc abundance scored as decreased, DMSO-normalised (count); higher = more persistent destabilization
# [20] = target: AKT1 (UniProt P31749); experiment: as above
SMILES,kinase-Nluc reporter destabilization hit call [1],kinase-Nluc reporter destabilization hit call [2],kinase-Nluc reporter destabilization hit call [3],kinase-Nluc reporter destabilization hit call [4],kinase-Nluc reporter destabilization hit call [5],kinase-Nluc reporter destabilization hit call [6],kinase-Nluc reporter destabilization hit call [7],kinase-Nluc reporter destabilization hit call [8],kinase-Nluc reporter destabilization hit call [9],kinase-Nluc reporter destabilization hit call [10],kinase-Nluc reporter destabilization hit call [11],kinase-Nluc reporter destabilization hit call [12],kinase-Nluc reporter destabilization hit call [13],kinase-Nluc reporter destabilization hit call [14],kinase-Nluc reporter destabilization hit call [15],kinase-Nluc reporter destabilization hit call [16],kinase-Nluc reporter destabilization hit call [17],kinase-Nluc reporter destabilization hit call [18],number of time points [19],number of time points [20]
Cc1csc(-c2nnc(Nc3ccc(Oc4ncccc4-c4ccnc(N)n4)cc3)c3ccccc23)c1 (2.5 µM),inactive: 0,inactive: 0,inactive: 0,inactive: 0,inactive: 0,inactive: 0,inactive: 0,inactive: 0,inactive: 0,inactive: 0,inactive: 0,inactive: 0,inactive: 0,inactive: 0,inactive: 0,inactive: 0,inactive: 0,inactive: 0,2,0
COc1ccc2[nH]cc(/C=C3\C(=O)Nc4ccc(NC(=O)CCN5CCCCC5)cc43)c2c1 (2.5 µM),inactive: 0,inactive: 0,inactive: 0,inactive: 0,inactive: 0,inactive: 0,inactive: 0,inactive: 0,inactive: 0,inactive: 0,inactive: 0,inactive: 0,inactive: 0,inactive: 0,inactive: 0,inactive: 0,inactive: 0,inactive: 0,0,0
CCn1c(=O)c(-c2ccc(-c3cncs3)cc2Cl)cc2cnc(Nc3ccc(N4CCN(C)CC4)cc3)nc21 (2.5 µM),inactive: 0,inactive: 0,inactive: 0,inactive: 0,inactive: 0,inactive: 0,inactive: 0,inactive: 0,inactive: 0,inactive: 0,inactive: 0,inactive: 0,inactive: 0,inactive: 0,inactive: 0,inactive: 0,inactive: 0,inactive: 0,0,0
O=C1NC(=O)/C(=C/c2ccc3c(c2)OC(F)(F)O3)S1 (10 µM),inactive: 0,inactive: 0,inactive: 0,inactive: 0,inactive: 0,inactive: 0,inactive: 0,inactive: 0,inactive: 0,inactive: 0,inactive: 0,inactive: 0,inactive: 0,inactive: 0,inactive: 0,inactive: 0,inactive: 0,inactive: 0,0,0
N#CC(c1ccnc(NCCc2cccnc2)n1)c1nc2ccccc2s1 (stereo not given) (10 µM),inactive: 0,inactive: 0,inactive: 0,inactive: 0,inactive: 0,inactive: 0,inactive: 0,inactive: 0,inactive: 0,inactive: 0,inactive: 0,inactive: 0,inactive: 0,inactive: 0,inactive: 0,inactive: 0,inactive: 0,inactive: 0,0,0
O=C(NC(NC(=S)Nc1ccc(F)c([N+](=O)[O-])c1)C(Cl)(Cl)Cl)C(c1ccccc1)c1ccccc1 (stereo not given) (10 µM),inactive: 0,inactive: 0,inactive: 0,inactive: 0,inactive: 0,inactive: 0,inactive: 0,inactive: 0,inactive: 0,inactive: 0,inactive: 0,inactive: 0,inactive: 0,inactive: 0,inactive: 0,inactive: 0,inactive: 0,inactive: 0,0,0
C=CC(=O)Nc1cccc(C)c1Nc1ncc2cc(-c3c(Cl)c(OC)cc(OC)c3Cl)ccc2n1 (2.5 µM),inactive: 0,inactive: 0,inactive: 0,inactive: 0,inactive: 0,inactive: 0,inactive: 0,inactive: 0,inactive: 0,inactive: 0,inactive: 0,inactive: 0,inactive: 0,inactive: 0,inactive: 0,inactive: 0,inactive: 0,inactive: 0,2,0
CC[C@@]1(c2ccccc2)C2=C(CC(C)(C)CC2=O)Nc2[nH]ncc21 (10 µM),inactive: 0,inactive: 0,inactive: 0,inactive: 0,inactive: 0,inactive: 0,inactive: 0,inactive: 0,inactive: 0,inactive: 0,inactive: 0,inactive: 0,inactive: 0,inactive: 0,inactive: 0,inactive: 0,inactive: 0,inactive: 0,0,0
N#Cc1ccc2ncnc(NC3CCC(N4CCOCC4)CC3)c2c1 (stereo not given) (10 µM),inactive: 0,inactive: 0,inactive: 0,inactive: 0,inactive: 0,inactive: 0,inactive: 0,inactive: 0,inactive: 0,inactive: 0,inactive: 0,inactive: 0,inactive: 0,inactive: 0,inactive: 0,inactive: 0,inactive: 0,inactive: 0,0,0
NC1(Cc2ccc(Cl)cc2)CCN(c2ncnc3[nH]ccc23)CC1 (10 µM),inactive: 0,inactive: 0,inactive: 0,inactive: 0,inactive: 0,inactive: 0,inactive: 0,inactive: 0,inactive: 0,inactive: 0,inactive: 0,inactive: 0,inactive: 0,inactive: 0,inactive: 0,inactive: 0,inactive: 0,inactive: 0,2,0
CCn1c(-c2nonc2N)nc2cnc(Oc3cccc(NC(=O)c4ccc(OCCN5CCOCC5)cc4)c3)cc21 (10 µM),inactive: 0,inactive: 0,inactive: 0,inactive: 0,inactive: 0,inactive: 0,inactive: 0,inactive: 0,inactive: 0,inactive: 0,inactive: 0,inactive: 0,inactive: 0,inactive: 0,inactive: 0,inactive: 0,inactive: 0,inactive: 0,0,0
Cn1c(=O)c(F)c(Nc2ccc(I)cc2F)c2c(=O)n(C[C@@H](O)CO)cnc21 (10 µM),inactive: 0,inactive: 0,inactive: 0,inactive: 0,inactive: 0,inactive: 0,inactive: 0,inactive: 0,inactive: 0,inactive: 0,inactive: 0,inactive: 0,inactive: 0,inactive: 0,inactive: 0,inactive: 0,inactive: 0,inactive: 0,1,0
COc1ccc2c(c1O)OC(C)(C)c1c-2ccc2c1C(=O)N(c1ccc(C(=O)c3ccccc3)cc1)C2=O [Ampkinone] (10 µM),inactive: 0,inactive: 0,inactive: 0,inactive: 0,inactive: 0,inactive: 0,inactive: 0,inactive: 0,inactive: 0,inactive: 0,inactive: 0,inactive: 0,inactive: 0,inactive: 0,inactive: 0,inactive: 0,inactive: 0,inactive: 0,0,0
O=C(NCCCNc1nc(Nc2cccc(NC(=O)N3CCCC3)c2)ncc1I)c1cccs1 (2.5 µM),inactive: 0,inactive: 0,inactive: 0,inactive: 0,inactive: 0,inactive: 0,inactive: 0,inactive: 0,inactive: 0,inactive: 0,inactive: 0,inactive: 0,inactive: 0,inactive: 0,inactive: 0,inactive: 0,inactive: 0,inactive: 0,0,0
COc1cc(N2CCN(C)CC2)ccc1Nc1ncc2c(n1)N(C1CCC1)C(=O)N(c1c(C)cccc1C)C2 (2.5 µM),inactive: 0,inactive: 0,inactive: 0,inactive: 0,inactive: 0,inactive: 0,inactive: 0,inactive: 0,inactive: 0,inactive: 0,inactive: 0,inactive: 0,inactive: 0,inactive: 0,inactive: 0,inactive: 0,inactive: 0,inactive: 0,0,0
Cc1ccc(NC(=S)NNc2c([N+](=O)[O-])cc(C(F)(F)F)cc2[N+](=O)[O-])cc1Cl (10 µM),inactive: 0,inactive: 0,inactive: 0,inactive: 0,inactive: 0,inactive: 0,inactive: 0,inactive: 0,inactive: 0,inactive: 0,inactive: 0,inactive: 0,inactive: 0,inactive: 0,inactive: 0,inactive: 0,inactive: 0,inactive: 0,0,0
CC(C)=CC[C@H](O)C1=CC(=O)c2c(O)ccc(O)c2C1=O [(-)-Alkannin] (2.5 µM),inactive: 0,inactive: 0,inactive: 0,inactive: 0,inactive: 0,inactive: 0,inactive: 0,inactive: 0,inactive: 0,inactive: 0,inactive: 0,inactive: 0,inactive: 0,inactive: 0,inactive: 0,inactive: 0,inactive: 0,inactive: 0,0,0

# Another view of part of the listing above.
SMILES	kinase-Nluc reporter destabilization hit call [1]	kinase-Nluc reporter destabilization hit call [2]	kinase-Nluc reporter destabilization hit call [3]	kinase-Nluc reporter destabilization hit call [4]	kinase-Nluc reporter destabilization hit call [5]	kinase-Nluc reporter destabilization hit call [6]	kinase-Nluc reporter destabilization hit call [7]	kinase-Nluc reporter destabilization hit call [8]	kinase-Nluc reporter destabilization hit call [9]	kinase-Nluc reporter destabilization hit call [10]	kinase-Nluc reporter destabilization hit call [11]	kinase-Nluc reporter destabilization hit call [12]	kinase-Nluc reporter destabilization hit call [13]	kinase-Nluc reporter destabilization hit call [14]	kinase-Nluc reporter destabilization hit call [15]	kinase-Nluc reporter destabilization hit call [16]	kinase-Nluc reporter destabilization hit call [17]	kinase-Nluc reporter destabilization hit call [18]	number of time points [19]	number of time points [20]
C=CC(=O)Nc1cccc(C)c1Nc1ncc2cc(-c3c(Cl)c(OC)cc(OC)c3Cl)ccc2n1 (2.5 µM)	inactive: 0	inactive: 0	inactive: 0	inactive: 0	inactive: 0	inactive: 0	inactive: 0	inactive: 0	inactive: 0	inactive: 0	inactive: 0	inactive: 0	inactive: 0	inactive: 0	inactive: 0	inactive: 0	inactive: 0	inactive: 0	2	0
CC[C@@]1(c2ccccc2)C2=C(CC(C)(C)CC2=O)Nc2[nH]ncc21 (10 µM)	inactive: 0	inactive: 0	inactive: 0	inactive: 0	inactive: 0	inactive: 0	inactive: 0	inactive: 0	inactive: 0	inactive: 0	inactive: 0	inactive: 0	inactive: 0	inactive: 0	inactive: 0	inactive: 0	inactive: 0	inactive: 0	0	0
